In the experiment the test system is P388 leukemia ip, CD2F1 mice, survival T/C. Kind of experiment: NCI In Vivo Anticancer Drug Screen. Data for tumor model P388 Leukemia (intraperitoneal) in CD2F1 (CDF1) mice. To be noted: T/C endpoint: median survival time, schedule: Q01DX009 (ip), vehicle: other, higher T/C = longer survival.

Molecules are shown by their SMILES. The list shows only some results of the screen, not a fair sample: it is rich in T/C values a quarter to a half above the control, in often repeated tests (any T/C) and in doses without a T/C. Other doses and runs of a compound stand elsewhere. T/C gives the treated animals as a percentage of the vehicle group. Some doses have a count of surviving animals in place of a T/C: the source files T/C as zero there, which appears to mark a toxic dose or a test without result, not a measured value. Survivors were counted at the toxicity check, usually on the fifth day, unless a day is given; later deaths do not show. Schedules are NCI's codes, read here as Q, the interval in days (D) or hours (H), X, the number of doses.

Consider `N=C(N)c1nc2ccccc2s1`, for which the survivor count by setting is: (dose: 50.0 mg/kg/injection) 0 of 6; (dose: 100.0 mg/kg/injection) 1 of 6; (dose: 200.0 mg/kg/injection) 0 of 6.

The record behind these values is PubChem BioAssay AID330 (DTP/NCI, 2004).
